PubChem BioAssay AID1259301 – Sanger Institute – 2017
Assay: 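Synthetic lethal pairings of kinase siRNAs with targeted drugs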 (secondary rescreen of primary hits using four separate siRNAs per gene). Cell system: LS180 human colorectal cancer cells. Reagents: single siRNA against human genes. Treatment: anchor drug BYL719 at 1 µM, cetuximab at 5 µg/ml or trametinib at 10 nM, each against a DMSO vehicle arm. Measurement: 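Replicate mean of viability versus control pool 2 (non-targeting), and for every anchor drug a synergy score assessed against the drug by itself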. Direction: synergy score with BYL719 and synergy score with cetuximab and synergy score with trametinib: higher = stronger synergistic (synthetic lethal) killing; viability with siRNA alone (DMSO): higher = more cells survive. Active means: 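Hit if synergy exceeds 0.10 with BYL719, cetuximab or trametinib, any single drug sufficing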. Calls: active = synergy with at least one drug; inactive = no synergy with any drug.
The whole screen tested 160 reagents; this is a random part of them. In the full data, 67 (42%) got an active call. 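Calls rest on synergy in any drug arm, not on siRNA-alone viability; rescreen tested four distinct siRNAs for each gene.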 The numbers tell different reagents against one gene apart. No sequences are given here. Not stated in the record: the amount of reagent, the time to read-out.

The first 4 entries, to show the layout:
| Target gene | reagent no. | synergy score with BYL719 | synergy score with cetuximab | synergy score with trametinib | viability with siRNA alone (DMSO) (fraction of control) | Call |
| --- | --- | --- | --- | --- | --- | --- |
| MPP3 (MAGUK p55 scaffold protein 3) | 1 | -0.052 | -0.0482 | 0.03 | 0.854 | inactive |
| MPP3 (MAGUK p55 scaffold protein 3) | 2 | -0.121 | -0.0708 | 0.0199 | 0.58 | inactive |
| MPP3 (MAGUK p55 scaffold protein 3) | 3 | -0.0541 | 0.00886 | 0.287 | 0.79 | active |
| MPP3 (MAGUK p55 scaffold protein 3) | 4 | -0.124 | 0.0273 | 0.0961 | 0.656 | inactive |

The listing, from the start:
| Target gene | reagent no. | synergy score with BYL719 | synergy score with cetuximab | synergy score with trametinib | viability with siRNA alone (DMSO) (fraction of control) | Call |
| --- | --- | --- | --- | --- | --- | --- |
| MPP3 (MAGUK p55 scaffold protein 3) | 1 | -0.052 | -0.0482 | 0.03 | 0.854 | inactive |
| MPP3 (MAGUK p55 scaffold protein 3) | 2 | -0.121 | -0.0708 | 0.0199 | 0.58 | inactive |
| MPP3 (MAGUK p55 scaffold protein 3) | 3 | -0.0541 | 0.00886 | 0.287 | 0.79 | active |
| MPP3 (MAGUK p55 scaffold protein 3) | 4 | -0.124 | 0.0273 | 0.0961 | 0.656 | inactive |
| MAP3K8 (mitogen-activated protein kinase kinase kinase 8) | 1 | 0.0587 | -0.0855 | 0.0638 | 0.916 | inactive |
| MAP3K8 (mitogen-activated protein kinase kinase kinase 8) | 2 | -0.0179 | -0.184 | -0.0334 | 0.297 | inactive |
| MAP3K8 (mitogen-activated protein kinase kinase kinase 8) | 3 | -0.0724 | -0.142 | -0.128 | 0.354 | inactive |
| MAP3K8 (mitogen-activated protein kinase kinase kinase 8) | 4 | -0.0194 | 0.0783 | 0.13 | 0.734 | active |
| PAK1 (p21 (RAC1) activated kinase 1) | 1 | -0.117 | 0.116 | 0.119 | 0.823 | active |
| PAK1 (p21 (RAC1) activated kinase 1) | 2 | -0.00322 | 0.122 | 0.0561 | 0.687 | active |
| PAK1 (p21 (RAC1) activated kinase 1) | 3 | -0.00384 | 0.1 | 0.0543 | 0.58 | active |
| PAK1 (p21 (RAC1) activated kinase 1) | 4 | -0.197 | -0.0855 | 0.0782 | 0.7 | inactive |
| NLK (nemo like kinase) | 1 | -0.113 | 0.0459 | 0.0746 | 0.854 | inactive |
| NLK (nemo like kinase) | 2 | -0.088 | -0.0278 | 0.0843 | 0.745 | inactive |
| NLK (nemo like kinase) | 3 | -0.249 | -0.0589 | -0.113 | 0.807 | inactive |
| NLK (nemo like kinase) | 4 | -0.173 | -0.161 | 0.0419 | 0.725 | inactive |
| HUNK (hormonally up-regulated Neu-associated kinase) | 1 | 0.0487 | 0.198 | 0.0292 | 0.526 | active |
| HUNK (hormonally up-regulated Neu-associated kinase) | 2 | 0.0461 | 0.121 | -0.00173 | 0.528 | active |
| HUNK (hormonally up-regulated Neu-associated kinase) | 3 | 0.025 | 0.061 | 0.184 | 0.541 | active |
| HUNK (hormonally up-regulated Neu-associated kinase) | 4 | 0.121 | 0.13 | 0.263 | 0.77 | active |
| COASY (Coenzyme A synthase) | 1 | -0.157 | -0.0833 | -0.0939 | 0.409 | inactive |
| COASY (Coenzyme A synthase) | 2 | 0.00905 | 0.0813 | 0.123 | 0.557 | active |
| COASY (Coenzyme A synthase) | 3 | -0.101 | 0.0533 | 0.0312 | 0.194 | inactive |
| COASY (Coenzyme A synthase) | 4 | -0.0508 | 0.0171 | -0.181 | 0.424 | inactive |
| RPS6KA4 (ribosomal protein S6 kinase A4) | 1 | -0.0791 | -0.0678 | 0.0331 | 0.733 | inactive |
| RPS6KA4 (ribosomal protein S6 kinase A4) | 2 | -0.0895 | -0.247 | 0.016 | 0.636 | inactive |
| RPS6KA4 (ribosomal protein S6 kinase A4) | 3 | -0.0327 | 0.0421 | -0.0631 | 0.561 | inactive |
| RPS6KA4 (ribosomal protein S6 kinase A4) | 4 | 0.13 | 0.0236 | 0.133 | 0.76 | active |
| PIM1 (Pim-1 proto-oncogene, serine/threonine kinase) | 1 | 0.0189 | -0.0525 | 0.0304 | 0.676 | inactive |
| PIM1 (Pim-1 proto-oncogene, serine/threonine kinase) | 2 | 0.132 | -0.0565 | 0.181 | 0.778 | active |
| PIM1 (Pim-1 proto-oncogene, serine/threonine kinase) | 3 | -0.104 | -0.087 | -0.0419 | 0.686 | inactive |
| PIM1 (Pim-1 proto-oncogene, serine/threonine kinase) | 4 | -0.12 | -0.309 | 0.0158 | 0.524 | inactive |
| STK36 (serine/threonine kinase 36) | 1 | -0.0784 | -0.000172 | 0.078 | 0.677 | inactive |
| STK36 (serine/threonine kinase 36) | 2 | -0.0168 | -0.0745 | 0.0151 | 0.924 | inactive |
| STK36 (serine/threonine kinase 36) | 3 | -0.178 | 0.0458 | 0.0383 | 0.641 | inactive |
| STK36 (serine/threonine kinase 36) | 4 | -0.172 | -0.0754 | 0.0833 | 0.801 | inactive |
| GTF2H1 (general transcription factor IIH subunit 1) | 1 | -0.219 | -0.103 | -0.218 | 0.634 | inactive |
| GTF2H1 (general transcription factor IIH subunit 1) | 2 | -0.142 | -0.0278 | -0.0455 | 0.771 | inactive |
| GTF2H1 (general transcription factor IIH subunit 1) | 3 | -0.17 | -0.0919 | -0.106 | 0.643 | inactive |
| GTF2H1 (general transcription factor IIH subunit 1) | 4 | -0.0285 | -0.14 | 0.00457 | 0.522 | inactive |
